This is one part of the list.
What follows are sequences tested against T1, OsSMF1 (Oryza sativa, UniProt Q6ZLB0 1-436) (assay: protein-binding microarray (RPBM); PBS, 2% BSA, 51.3 ng/ul salmon testes DNA, 50 uM zinc acetate, 200 nM TF, 25 C, 1 h; high values mean tight binding). Conditions: protein: recombinant; tags: N-terminal polyhistidine and DsRed monomer fusion (pET32a); chain copies: 2; label: CyDye5-dUTP incorporated in the synthesized complementary strand; 3' TTTTT single-stranded linker to array surface; dsDNA, one strand shown.
T1 sequence: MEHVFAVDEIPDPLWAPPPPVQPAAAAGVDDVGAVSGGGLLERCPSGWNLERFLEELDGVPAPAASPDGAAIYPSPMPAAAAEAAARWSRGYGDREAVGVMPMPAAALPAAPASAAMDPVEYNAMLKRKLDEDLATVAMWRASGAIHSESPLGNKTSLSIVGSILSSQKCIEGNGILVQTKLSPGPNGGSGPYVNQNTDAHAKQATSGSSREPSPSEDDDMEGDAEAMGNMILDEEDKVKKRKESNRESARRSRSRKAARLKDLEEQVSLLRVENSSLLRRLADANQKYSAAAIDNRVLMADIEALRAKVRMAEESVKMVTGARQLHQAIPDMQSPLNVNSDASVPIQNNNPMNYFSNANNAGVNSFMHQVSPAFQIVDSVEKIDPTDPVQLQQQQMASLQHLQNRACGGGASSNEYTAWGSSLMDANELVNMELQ
Method in brief: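 Transcription factors were made in E. coli BL21-CodonPlus as N-terminal fusions to a polyhistidine tag and DsRed, then purified on Ni–NTA. After primer extension with Cy5-dUTP and blocking with 2% BSA, a custom Agilent array was exposed for 1 h at 25 °C to 200 nM protein in PBS, 2% BSA, salmon testes DNA and 50 µM zinc acetate. Washed arrays were scanned on an Axon 4000B, and the binding signal is per-feature fluorescence intensity in arbitrary units.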
In the case of “CGTCGATGCCAATACAATAACCATCATCATCATCATCATTCGGAGTCACCTAGTGCAG”, the binding signal is reported as 20400 fluorescence intensity (a.u.).
With “AAATCACAGAGTATTTTGGGTAGTGATGCTCGTGAGCCTACGGAGTCACCTAGTGCAG” the binding signal was 4140 fluorescence intensity (a.u.).
“GCAGCGGAAGACGTCGCGGCCGCGTCGACGATGACGCGCGCGGAGTCACCTAGTGCAG” was tested, and the binding signal was 3660 fluorescence intensity (a.u.).
“TTAGGCCTCTCACAGTGCTCTTAGCTGGACCGGTGCTACACGGAGTCACCTAGTGCAG” was tested, and the binding signal was 3920 fluorescence intensity (a.u.).
With “GTCGCCATGCTCGCCGCCGTGGCCACGCTCCTCCTCGACACGGAGTCACCTAGTGCAG” the binding signal was 5020 fluorescence intensity (a.u.).
“GTGTGTGTGTGTGTGTGTGTGTGAACGATCGGTCTGTATCCGGAGTCACCTAGTGCAG” was tested, and the binding signal was 3920 fluorescence intensity (a.u.).
For “TGGCCCGCGGAGACGCAGAGGTTCCCCGGCATGGAGAACACGGAGTCACCTAGTGCAG”, the binding signal was 23000 fluorescence intensity (a.u.).
With “TTATTATTATCGGCTGCCTCCACACGCACACGTGGGATAGCGGAGTCACCTAGTGCAG” the binding signal was 6630 fluorescence intensity (a.u.).
In the case of “AGACGCCACGCCGACACGCAGCTGCGTGTGCGAGGAGGAACGGAGTCACCTAGTGCAG”, the binding signal is reported as 4930 fluorescence intensity (a.u.).
In the case of “CTGCGTCGCATCGCTAGCCAACACGTACGTACAGCGCGCACGGAGTCACCTAGTGCAG”, the binding signal is reported as 26600 fluorescence intensity (a.u.).
With “TGTGAGATGACCAGCGAGTGATTGGTAAACTGTTTCAGTGCGGAGTCACCTAGTGCAG” the binding signal was 13100 fluorescence intensity (a.u.).
“TCCCACGTTCAAGCCCTCCTCACCACCCTCACACCTCACACGGAGTCACCTAGTGCAG” was tested, and the binding signal was 3460 fluorescence intensity (a.u.).
In the case of “CGTGTTCGCTTCCCGTGATATCCACGTCACCCTGCGCTGGCGGAGTCACCTAGTGCAG”, the binding signal is reported as 25800 fluorescence intensity (a.u.).
In the case of “TTTTCTTCTGTTCGTGTGCGTGCTCGCGCCTTTCTTGCTTCGGAGTCACCTAGTGCAG”, the binding signal is reported as 4250 fluorescence intensity (a.u.).
With “TATTTCTTCACCTTTAGTCATGTCACCTCTCACTTCACACCGGAGTCACCTAGTGCAG” the binding signal was 5120 fluorescence intensity (a.u.).
For “GCAAACTACCGGGAGCAGGTGGCTGCACTTGTGTCAGCACCGGAGTCACCTAGTGCAG”, the binding signal was 6160 fluorescence intensity (a.u.).
With “ATCATGCCACCTATCTCTCCATTGCCAGCACAACATCCATCGGAGTCACCTAGTGCAG” the binding signal was 7220 fluorescence intensity (a.u.).
With “TCGCGTCCCTCCGTCTCCGGCCAGCTAGTGGAGTGGAGTACGGAGTCACCTAGTGCAG” the binding signal was 14700 fluorescence intensity (a.u.).
With “CGGCAGGTCTCCCGATGCGTGCCACGTGTACGGCGGATGGCGGAGTCACCTAGTGCAG” the binding signal was 12900 fluorescence intensity (a.u.).
For “CAGCAACGGGATCAACGGTGACCAGATCTGAGCCGTGCTGCGGAGTCACCTAGTGCAG”, the binding signal was 3230 fluorescence intensity (a.u.).
In the case of “TCCCACATGCTGAGTCAGCTCGTCAACCGGGTCAATGACGCGGAGTCACCTAGTGCAG”, the binding signal is reported as 15800 fluorescence intensity (a.u.).
For “AATCCATAATTAGAGAATGTTTACTGTAGCATCACATAGGCGGAGTCACCTAGTGCAG”, the binding signal was 3290 fluorescence intensity (a.u.).
In the case of “CGCCGGCGCTCGAGGCGCTGCACATCCACGTGTCCGCGTCCGGAGTCACCTAGTGCAG”, the binding signal is reported as 13800 fluorescence intensity (a.u.).
With “GGGTTCTCCTCCGAGGCGCCACACGTCATGCTTCTCCTCTCGGAGTCACCTAGTGCAG” the binding signal was 5350 fluorescence intensity (a.u.).
“AACGTTTGTTAGTACGGTGGTGACGTGGCGTGGGTCCAACCGGAGTCACCTAGTGCAG” was tested, and the binding signal was 22100 fluorescence intensity (a.u.).
“GGCGGTGCTGGTGGAGGCGGTGGTCTCGGAGGTGGAGCAGCGGAGTCACCTAGTGCAG” was tested, and the binding signal was 46000 fluorescence intensity (a.u.).
For “CACAAACTTTACAGTTTACACGCTACGCAAACGTACGCCCCGGAGTCACCTAGTGCAG”, the binding signal was 21400 fluorescence intensity (a.u.).
In the case of “GGTCTATAAATTCATGTACATTAGCACAACAACCACTACACGGAGTCACCTAGTGCAG”, the binding signal is reported as 3630 fluorescence intensity (a.u.).
For “TGGCCTAATGATTTAGTAGAGTTTGCACCCTGCAATCGGTCGGAGTCACCTAGTGCAG”, the binding signal was 31300 fluorescence intensity (a.u.).
In the case of “GTGTAAACGTCGTTGCCGCCCACTCGCCGGCACGTCGCCACGGAGTCACCTAGTGCAG”, the binding signal is reported as 3330 fluorescence intensity (a.u.).
With “TCCAGTCTCATCACTTTGCTCCAAAAGAATAAGTTAGTGGCGGAGTCACCTAGTGCAG” the binding signal was 30500 fluorescence intensity (a.u.).
For “CTCCGCGTTCCTCACTTGCTAACGGGAGAAACCAACGTGGCGGAGTCACCTAGTGCAG”, the binding signal was 4900 fluorescence intensity (a.u.).
“CGCCGCCTCCTCGTTCTTCCCTAGCCGTCGTCACCGCCCGCGGAGTCACCTAGTGCAG” was tested, and the binding signal was 3370 fluorescence intensity (a.u.).
For “GACGTAGGAAGTATGCTTATAGAATGCTATTGTACGGTACCGGAGTCACCTAGTGCAG”, the binding signal was 20800 fluorescence intensity (a.u.).
“ACTTATTAGTTGTACTCCTACGTACGTATGACTGTCGGAACGGAGTCACCTAGTGCAG” was tested, and the binding signal was 4130 fluorescence intensity (a.u.).
With “CACGATACCGCGCCGATCTATTTTATCCTGAAACACATTACGGAGTCACCTAGTGCAG” the binding signal was 26100 fluorescence intensity (a.u.).
“CTTCTGTCGTGGGATTCCGTCGAATCCGGTGATTGTTACACGGAGTCACCTAGTGCAG” was tested, and the binding signal was 17300 fluorescence intensity (a.u.).
“CACCTGTCTGCCAGAGTAGCCGACGTGGCACGAGTAATCTCGGAGTCACCTAGTGCAG” was tested, and the binding signal was 10200 fluorescence intensity (a.u.).
“GTTATGATGGGGATAACGAGTTTCAAACACGAAGCACCTGCGGAGTCACCTAGTGCAG” was tested, and the binding signal was 3340 fluorescence intensity (a.u.).
In the case of “AGTCGTTAAGAACATGTATATAAAAGATTTGCACACAAATCGGAGTCACCTAGTGCAG”, the binding signal is reported as 25500 fluorescence intensity (a.u.).
For “ACAGATATTTTCGCTTTTCAACCAGCGTTGACTCGTCGTTCGGAGTCACCTAGTGCAG”, the binding signal was 3190 fluorescence intensity (a.u.).
For “CGCTGCGCAGACGTCCACTCATTCGTTTCCGGCGTGGCATCGGAGTCACCTAGTGCAG”, the binding signal was 6210 fluorescence intensity (a.u.).

Reference: article PMC7819943, “Rice protein-binding microarrays: a tool to detect cis-acting elements near promoter regions in rice”
